Data: patent US20060204492A1 (published 2006)
Results are given in words; binding and its absence hold for the method and conditions named. Binding calls can cover weak binding; strength is not graded here.

Target: integrin αvβ3, purified from human placenta (human)
Experiment: competition ELISA, biotinylated fibrinogen on immobilized αvβ3

binding | Binder
binds | LM609 grafted antibody combinatorial clone C59 (Fab, V domains shown, Fab) VH: QVQLVESGGGVVQPGRSLRLSCAASGFTFSSYDMSWVRQAPGKGLEWVAKVSSGGGSTYYPDTVQGRFTISRDNSKNTLYLQMNSLRAEDTAVYYCARHNYGSFADWGQGTTVTVSS VL: EIVLTQSPATLSLSPGERATLSCQASQSISNFLHWYQQRPGQAPRLLIRYRSQSISGIPARFSGSGSGTDFTLTISSLEPEDFAVYYCQQSGSWPHTFGGGTKVEIK
binds | LM609 grafted antibody variant S102 (Fab, V domains shown, Fab; also called clone S102) VH: QVQLVESGGGVVQPGRSLRLSCAASGFTFSSYDMSWVRQAPGKGLEWVAKVSSGGGSTYYLDTVQGRFTISRDNSKNTLYLQMNSLRAEDTAVYYCARHNYGSFASWGQGTTVTVSS VL: EIVLTQSPATLSLSPGERATLSCQASQSISNHLHWYQQRPGQAPRLLIRYRSQSISGIPARFSGSGSGTDFTLTISSLEPEDFAVYYCQQSGSWPHTFGGGTKVEIK
